Values quoted from earlier work, collected in patent US9655849B2, “Solid particulate compositions comprising coenzyme Q10” (Particle Dynamics International, LLC, priority 2011, dated 2017).

Settings: also printed as 2-3 mg/L; cited from earlier work

In the case of COC1=C(OC)C(=O)C(C/C=C(\C)CC/C=C(\C)CC/C=C(\C)CC/C=C(\C)CC/C=C(\C)CC/C=C(\C)CC/C=C(\C)CC/C=C(\C)CC/C=C(\C)CCC=C(C)C)=C(C)C1=O [coenzyme Q10], the water solubility is listed as 2-3 ppm.
